From patent US4261884 (dated 1981)

Test: general procedure: solution-phase peptide synthesis; dehydro azlactone ring opening; isobutyl chloroformate/N-methylmorpholine mixed

Row | Substance | step yield (coupling step) | other results
1 | BOC-DAla-Gly-ΔPhe-Met NH2 | 54% | –
2 | H.Pro-ΔPhe-His-Leu.OH.2HBr. | – | step yield (late stage modification step, 2HBr): 69%
3 | N-carbobenzoxy-Gly-Gly- Phe-MetNH2 | 60% | –
4 | S-Trityl-3-Mercaptopropanoyl-Prolyl-Δ-Phenylalanyl-Histidyl-Leucine.O | 68% | –
5 | Z-Pro-ΔPhe-His-Leu-OCH3 | – | step yield (coupling step, run 1): 84%; step yield (coupling step, run 2): 76%
6 | Z-Pro-ΔPhe-His-Leu.OH | 81% | step yield (late stage modification step): 64%
